Laboratory results: ChEMBL document CHEMBL5444388, “Affinity Phenotypic Cellular Literature for EUbOPEN Chemogenomic Library” (2024)
The source gives many values for each of these; only a part stands here.

Amino acid sequences for entries named in this document (tags omitted). A change or cut given only in a name is not applied to a line headed by its entry.
UniProt Q02224: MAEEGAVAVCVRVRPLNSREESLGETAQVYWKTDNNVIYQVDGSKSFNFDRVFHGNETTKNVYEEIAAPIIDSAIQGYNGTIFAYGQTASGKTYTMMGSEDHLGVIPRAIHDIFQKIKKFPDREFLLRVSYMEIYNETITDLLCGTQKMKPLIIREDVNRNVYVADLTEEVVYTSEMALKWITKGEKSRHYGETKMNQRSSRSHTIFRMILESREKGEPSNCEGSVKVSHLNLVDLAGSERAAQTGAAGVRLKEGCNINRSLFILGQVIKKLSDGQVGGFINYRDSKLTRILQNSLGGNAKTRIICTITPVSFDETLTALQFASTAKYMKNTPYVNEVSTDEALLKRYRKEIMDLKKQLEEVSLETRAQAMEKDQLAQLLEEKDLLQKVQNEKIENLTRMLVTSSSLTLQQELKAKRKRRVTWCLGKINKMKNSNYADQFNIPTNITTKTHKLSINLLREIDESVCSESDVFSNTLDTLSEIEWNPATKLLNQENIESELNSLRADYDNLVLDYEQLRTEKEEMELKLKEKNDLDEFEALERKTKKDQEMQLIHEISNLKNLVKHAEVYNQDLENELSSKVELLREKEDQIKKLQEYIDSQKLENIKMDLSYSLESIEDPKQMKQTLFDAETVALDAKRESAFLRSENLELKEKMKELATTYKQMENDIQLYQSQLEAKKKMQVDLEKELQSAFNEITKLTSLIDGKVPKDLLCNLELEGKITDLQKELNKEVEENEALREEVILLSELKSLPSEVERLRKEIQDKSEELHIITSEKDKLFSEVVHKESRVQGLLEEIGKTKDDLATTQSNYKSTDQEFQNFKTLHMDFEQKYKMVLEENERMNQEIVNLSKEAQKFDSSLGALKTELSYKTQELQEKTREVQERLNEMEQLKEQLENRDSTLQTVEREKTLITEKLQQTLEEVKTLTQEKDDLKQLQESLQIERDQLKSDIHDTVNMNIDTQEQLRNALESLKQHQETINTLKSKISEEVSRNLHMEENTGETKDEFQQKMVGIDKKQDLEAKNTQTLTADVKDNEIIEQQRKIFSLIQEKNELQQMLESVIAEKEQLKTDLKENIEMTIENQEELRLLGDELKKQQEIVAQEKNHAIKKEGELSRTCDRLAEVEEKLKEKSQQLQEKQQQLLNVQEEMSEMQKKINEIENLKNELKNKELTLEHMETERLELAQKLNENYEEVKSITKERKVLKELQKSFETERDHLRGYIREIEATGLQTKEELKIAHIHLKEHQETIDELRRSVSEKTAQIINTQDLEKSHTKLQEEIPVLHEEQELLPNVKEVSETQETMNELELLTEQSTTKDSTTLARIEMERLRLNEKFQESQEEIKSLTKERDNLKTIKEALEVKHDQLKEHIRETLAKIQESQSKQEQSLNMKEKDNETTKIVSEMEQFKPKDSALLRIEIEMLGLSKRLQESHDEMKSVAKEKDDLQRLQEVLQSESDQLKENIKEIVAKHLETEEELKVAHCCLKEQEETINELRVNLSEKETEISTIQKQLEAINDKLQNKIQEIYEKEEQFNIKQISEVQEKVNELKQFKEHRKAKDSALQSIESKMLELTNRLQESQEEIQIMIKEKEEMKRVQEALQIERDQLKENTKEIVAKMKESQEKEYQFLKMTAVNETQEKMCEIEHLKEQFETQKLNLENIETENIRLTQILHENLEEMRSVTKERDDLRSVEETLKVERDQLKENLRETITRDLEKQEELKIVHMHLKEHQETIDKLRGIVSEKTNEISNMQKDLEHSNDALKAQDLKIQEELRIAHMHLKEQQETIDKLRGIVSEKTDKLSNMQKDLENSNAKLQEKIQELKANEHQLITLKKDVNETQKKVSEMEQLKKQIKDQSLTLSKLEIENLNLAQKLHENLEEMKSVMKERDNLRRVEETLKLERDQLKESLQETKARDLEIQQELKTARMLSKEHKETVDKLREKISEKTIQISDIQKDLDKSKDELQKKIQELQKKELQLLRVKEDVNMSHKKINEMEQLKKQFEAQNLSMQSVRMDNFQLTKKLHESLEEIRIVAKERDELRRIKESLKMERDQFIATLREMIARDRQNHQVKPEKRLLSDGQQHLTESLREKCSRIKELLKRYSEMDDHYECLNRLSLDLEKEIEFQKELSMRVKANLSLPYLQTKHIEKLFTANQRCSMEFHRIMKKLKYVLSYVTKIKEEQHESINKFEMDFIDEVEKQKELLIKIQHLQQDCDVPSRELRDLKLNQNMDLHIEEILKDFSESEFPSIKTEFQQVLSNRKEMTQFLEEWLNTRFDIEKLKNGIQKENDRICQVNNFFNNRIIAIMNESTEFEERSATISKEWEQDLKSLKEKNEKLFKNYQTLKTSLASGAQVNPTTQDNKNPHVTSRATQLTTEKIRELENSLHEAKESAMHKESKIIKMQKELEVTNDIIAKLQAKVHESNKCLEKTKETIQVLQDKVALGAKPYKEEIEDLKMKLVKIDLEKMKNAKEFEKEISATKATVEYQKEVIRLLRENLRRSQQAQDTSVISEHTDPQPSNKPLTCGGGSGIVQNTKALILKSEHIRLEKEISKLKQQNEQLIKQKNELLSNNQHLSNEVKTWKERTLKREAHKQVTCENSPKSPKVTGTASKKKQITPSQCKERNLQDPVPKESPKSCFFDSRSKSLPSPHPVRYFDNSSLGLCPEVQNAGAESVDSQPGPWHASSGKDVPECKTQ

Legend:
Type in all cases: functional, cell-based
Design in all cases: recommended concentration 100 nM
[1] = target: Centromere-associated protein E (Homo sapiens) (UniProt Q02224); assay: Affinity Phenotypic Cellular interaction: (Cell-growth inhibition assays (growth inhibitory effect colon cancer cell line CHL-1)) EUB0000734a CENPE; conditions: Affinity Phenotypic Cellular Source Knowledge https://pubmed.ncbi.nlm.nih.gov/20167803/
[2] = target: Centromere-associated protein E (Homo sapiens) (UniProt Q02224); assay: Affinity Phenotypic Cellular interaction: (Cell-growth inhibition assays (growth inhibitory effect colon cancer cell line NCI-H661)) EUB0000734a CENPE; conditions: Affinity Phenotypic Cellular Source Knowledge https://pubmed.ncbi.nlm.nih.gov/20167803/
[3] = target: Centromere-associated protein E (Homo sapiens) (UniProt Q02224); assay: Affinity Phenotypic Cellular interaction: (Cell-growth inhibition assays (growth inhibitory effect colon cancer cell line CAL27)) EUB0000734a CENPE; conditions: CAL-27, Affinity Phenotypic Cellular Source Knowledge https://pubmed.ncbi.nlm.nih.gov/20167803/
[4] = target: Centromere-associated protein E (Homo sapiens) (UniProt Q02224); assay: Affinity Phenotypic Cellular interaction: (Cell-growth inhibition assays (growth inhibitory effect colon cancer cell line CaOv-3)) EUB0000734a CENPE; conditions: Affinity Phenotypic Cellular Source Knowledge https://pubmed.ncbi.nlm.nih.gov/20167803/
[5] = target: Centromere-associated protein E (Homo sapiens) (UniProt Q02224); assay: Affinity Phenotypic Cellular interaction: (Cell-growth inhibition assays (growth inhibitory effect colon cancer cell line SK-MEL-28)) EUB0000734a CENPE; conditions: SK-MEL-2, Affinity Phenotypic Cellular Source Knowledge https://pubmed.ncbi.nlm.nih.gov/20167803/
[6] = target: Centromere-associated protein E (Homo sapiens) (UniProt Q02224); assay: Affinity Phenotypic Cellular interaction: (Cell-growth inhibition assays (growth inhibitory effect colon cancer cell line SW620)) EUB0000734a CENPE; conditions: SW-620, Affinity Phenotypic Cellular Source Knowledge https://pubmed.ncbi.nlm.nih.gov/20167803/
[7] = target: Centromere-associated protein E (Homo sapiens) (UniProt Q02224); assay: Affinity Phenotypic Cellular interaction: (Cell-growth inhibition assays (growth inhibitory effect colon cancer cell line NCI-H526)) EUB0000734a CENPE; conditions: Affinity Phenotypic Cellular Source Knowledge https://pubmed.ncbi.nlm.nih.gov/20167803/
[8] = target: Centromere-associated protein E (Homo sapiens) (UniProt Q02224); assay: Affinity Phenotypic Cellular interaction: (Cell-growth inhibition assays (growth inhibitory effect colon cancer cell line HCC2998)) EUB0000734a CENPE; conditions: HCC 2998, Affinity Phenotypic Cellular Source Knowledge https://pubmed.ncbi.nlm.nih.gov/20167803/
[9] = target: Centromere-associated protein E (Homo sapiens) (UniProt Q02224); assay: Affinity Phenotypic Cellular interaction: (Cell-growth inhibition assays (growth inhibitory effect colon cancer cell line HT-1080)) EUB0000734a CENPE; conditions: Affinity Phenotypic Cellular Source Knowledge https://pubmed.ncbi.nlm.nih.gov/20167803/
[10] = target: Centromere-associated protein E (Homo sapiens) (UniProt Q02224); assay: Affinity Phenotypic Cellular interaction: (Cell-growth inhibition assays (growth inhibitory effect colon cancer cell line BeWo)) EUB0000734a CENPE; conditions: Affinity Phenotypic Cellular Source Knowledge https://pubmed.ncbi.nlm.nih.gov/20167803/
[11] = target: Centromere-associated protein E (Homo sapiens) (UniProt Q02224); assay: Affinity Phenotypic Cellular interaction: (Cell-growth inhibition assays (growth inhibitory effect colon cancer cell line AGS)) EUB0000734a CENPE; conditions: Affinity Phenotypic Cellular Source Knowledge https://pubmed.ncbi.nlm.nih.gov/20167803/
[12] = target: Centromere-associated protein E (Homo sapiens) (UniProt Q02224); assay: Affinity Phenotypic Cellular interaction: (Cell-growth inhibition assays (growth inhibitory effect colon cancer cell line IGROV1)) EUB0000734a CENPE; conditions: IGROV-1, Affinity Phenotypic Cellular Source Knowledge https://pubmed.ncbi.nlm.nih.gov/20167803/
[13] = target: Centromere-associated protein E (Homo sapiens) (UniProt Q02224); assay: Affinity Phenotypic Cellular interaction: (Cell-growth inhibition assays (growth inhibitory effect colon cancer cell line NCI-H295R)) EUB0000734a CENPE; conditions: Affinity Phenotypic Cellular Source Knowledge https://pubmed.ncbi.nlm.nih.gov/20167803/
[14] = target: Centromere-associated protein E (Homo sapiens) (UniProt Q02224); assay: Affinity Phenotypic Cellular interaction: (Cell-growth inhibition assays (growth inhibitory effect colon cancer cell line HCC70)) EUB0000734a CENPE; conditions: Affinity Phenotypic Cellular Source Knowledge https://pubmed.ncbi.nlm.nih.gov/20167803/
[15] = target: Centromere-associated protein E (Homo sapiens) (UniProt Q02224); assay: Affinity Phenotypic Cellular interaction: (Cell-growth inhibition assays (growth inhibitory effect colon cancer cell line A204)) EUB0000734a CENPE; conditions: Affinity Phenotypic Cellular Source Knowledge https://pubmed.ncbi.nlm.nih.gov/20167803/
[16] = target: Centromere-associated protein E (Homo sapiens) (UniProt Q02224); assay: Affinity Phenotypic Cellular interaction: (Cell-growth inhibition assays (growth inhibitory effect colon cancer cell line SNU-5)) EUB0000734a CENPE; conditions: Affinity Phenotypic Cellular Source Knowledge https://pubmed.ncbi.nlm.nih.gov/20167803/
[17] = target: Centromere-associated protein E (Homo sapiens) (UniProt Q02224); assay: Affinity Phenotypic Cellular interaction: (Cell-growth inhibition assays (growth inhibitory effect neuroblastoma cancer cell line SK-N-F1)) EUB0000734a CENPE; conditions: SK-N-FI, Affinity Phenotypic Cellular Source Knowledge https://pubmed.ncbi.nlm.nih.gov/20167803/
[18] = target: Centromere-associated protein E (Homo sapiens) (UniProt Q02224); assay: Affinity Phenotypic Cellular interaction: (Cell-growth inhibition assays (growth inhibitory effect colon cancer cell line SiHa)) EUB0000734a CENPE; conditions: Affinity Phenotypic Cellular Source Knowledge https://pubmed.ncbi.nlm.nih.gov/20167803/
[19] = target: Centromere-associated protein E (Homo sapiens) (UniProt Q02224); assay: Affinity Phenotypic Cellular interaction: (Cell-growth inhibition assays (growth inhibitory effect colon cancer cell line AN3CA)) EUB0000734a CENPE; conditions: AN3-CA, Affinity Phenotypic Cellular Source Knowledge https://pubmed.ncbi.nlm.nih.gov/20167803/
[20] = target: Centromere-associated protein E (Homo sapiens) (UniProt Q02224); assay: Affinity Phenotypic Cellular interaction: (Cell-growth inhibition assays (growth inhibitory effect colon cancer cell line SK-UT-1)) EUB0000734a CENPE; conditions: Affinity Phenotypic Cellular Source Knowledge https://pubmed.ncbi.nlm.nih.gov/20167803/
[21] = target: Centromere-associated protein E (Homo sapiens) (UniProt Q02224); assay: Affinity Phenotypic Cellular interaction: (Cell-growth inhibition assays (growth inhibitory effect colon cancer cell line SW780)) EUB0000734a CENPE; conditions: Affinity Phenotypic Cellular Source Knowledge https://pubmed.ncbi.nlm.nih.gov/20167803/
[22] = target: Centromere-associated protein E (Homo sapiens) (UniProt Q02224); assay: Affinity Phenotypic Cellular interaction: (Cell-growth inhibition assays (growth inhibitory effect squamous cancer cell line SCC-13)) EUB0000734a CENPE; conditions: Affinity Phenotypic Cellular Source Knowledge https://pubmed.ncbi.nlm.nih.gov/20167803/
[23] = target: Centromere-associated protein E (Homo sapiens) (UniProt Q02224); assay: Affinity Phenotypic Cellular interaction: (Cell-growth inhibition assays (growth inhibitory effect colon cancer cell line SH-4)) EUB0000734a CENPE; conditions: Affinity Phenotypic Cellular Source Knowledge https://pubmed.ncbi.nlm.nih.gov/20167803/
[24] = target: Centromere-associated protein E (Homo sapiens) (UniProt Q02224); assay: Affinity Phenotypic Cellular interaction: (Cell-growth inhibition assays (growth inhibitory effect colon cancer cell line NCI-H520)) EUB0000734a CENPE; conditions: Affinity Phenotypic Cellular Source Knowledge https://pubmed.ncbi.nlm.nih.gov/20167803/
[25] = target: Centromere-associated protein E (Homo sapiens) (UniProt Q02224); assay: Affinity Phenotypic Cellular interaction: (Cell-growth inhibition assays (growth inhibitory effect colon cancer cell line KM12)) EUB0000734a CENPE; conditions: Affinity Phenotypic Cellular Source Knowledge https://pubmed.ncbi.nlm.nih.gov/20167803/
[26] = target: Centromere-associated protein E (Homo sapiens) (UniProt Q02224); assay: Affinity Phenotypic Cellular interaction: (Cell-growth inhibition assays (growth inhibitory effect colon cancer cell line UACC-62)) EUB0000734a CENPE; conditions: Affinity Phenotypic Cellular Source Knowledge https://pubmed.ncbi.nlm.nih.gov/20167803/
[27] = target: Centromere-associated protein E (Homo sapiens) (UniProt Q02224); assay: Affinity Phenotypic Cellular interaction: (Cell-growth inhibition assays (growth inhibitory effect colon cancer cell line HuP-T4)) EUB0000734a CENPE; conditions: Affinity Phenotypic Cellular Source Knowledge https://pubmed.ncbi.nlm.nih.gov/20167803/
[28] = target: Centromere-associated protein E (Homo sapiens) (UniProt Q02224); assay: Affinity Phenotypic Cellular interaction: (Cell-growth inhibition assays (growth inhibitory effect colon cancer cell line OVCAR-4)) EUB0000734a CENPE; conditions: Affinity Phenotypic Cellular Source Knowledge https://pubmed.ncbi.nlm.nih.gov/20167803/
[29] = target: Centromere-associated protein E (Homo sapiens) (UniProt Q02224); assay: Affinity Phenotypic Cellular interaction: (Cell-growth inhibition assays (growth inhibitory effect colon cancer cell line A427)) EUB0000734a CENPE; conditions: A-427, Affinity Phenotypic Cellular Source Knowledge https://pubmed.ncbi.nlm.nih.gov/20167803/
[30] = target: Centromere-associated protein E (Homo sapiens) (UniProt Q02224); assay: Affinity Phenotypic Cellular interaction: (Cell-growth inhibition assays (growth inhibitory effect colon cancer cell line NCI-H2052)) EUB0000734a CENPE; conditions: Affinity Phenotypic Cellular Source Knowledge https://pubmed.ncbi.nlm.nih.gov/20167803/
[31] = target: Centromere-associated protein E (Homo sapiens) (UniProt Q02224); assay: Affinity Phenotypic Cellular interaction: (Cell-growth inhibition assays (growth inhibitory effect colon cancer cell line SCC-15)) EUB0000734a CENPE; conditions: Affinity Phenotypic Cellular Source Knowledge https://pubmed.ncbi.nlm.nih.gov/20167803/
[32] = target: Centromere-associated protein E (Homo sapiens) (UniProt Q02224); assay: Affinity Phenotypic Cellular interaction: (Cell-growth inhibition assays (growth inhibitory effect colon cancer cell line SJRH30)) EUB0000734a CENPE; conditions: Affinity Phenotypic Cellular Source Knowledge https://pubmed.ncbi.nlm.nih.gov/20167803/
[33] = target: Centromere-associated protein E (Homo sapiens) (UniProt Q02224); assay: Affinity Phenotypic Cellular interaction: (Cell-growth inhibition assays (growth inhibitory effect colon cancer cell line SNU-1)) EUB0000734a CENPE; conditions: SNU1, Affinity Phenotypic Cellular Source Knowledge https://pubmed.ncbi.nlm.nih.gov/20167803/
[34] = target: Centromere-associated protein E (Homo sapiens) (UniProt Q02224); assay: Affinity Phenotypic Cellular interaction: (Cell-growth inhibition assays (growth inhibitory effect colon cancer cell line MES-SA)) EUB0000734a CENPE; conditions: Affinity Phenotypic Cellular Source Knowledge https://pubmed.ncbi.nlm.nih.gov/20167803/
[35] = target: Centromere-associated protein E (Homo sapiens) (UniProt Q02224); assay: Affinity Phenotypic Cellular interaction: (Cell-growth inhibition assays (growth inhibitory effect myeloma cancer cell line SKO-007)) EUB0000734a CENPE; conditions: SK-007, Affinity Phenotypic Cellular Source Knowledge https://pubmed.ncbi.nlm.nih.gov/20167803/

- GIC50 [1]: 24 nM
- GIC50 [2]: 22 nM
- GIC50 [3]: 47 nM
- GIC50 [4]: 33 nM
- GIC50 [5]: 31 nM
- GIC50 [6]: 47 nM
- GIC50 [7]: 88 nM
- GIC50 [8]: 29 nM
- GIC50 [9]: 24 nM
- GIC50 [10]: 26 nM
- GIC50 [11]: 29 nM
- GIC50 [12]: 31 nM
- GIC50 [13]: 298 nM
- GIC50 [15]: 18 nM
- GIC50 [16]: 88 nM
- GIC50 [17]: 120 nM
- GIC50 [18]: 29 nM
- GIC50 [19]: 23 nM
- GIC50 [20]: 23 nM
- GIC50 [21]: 30 nM
- GIC50 [22]: 58 nM
- GIC50 [23]: 44 nM
- GIC50 [24]: 34 nM
- GIC50 [25]: 56 nM
- GIC50 [26]: 25 nM
- GIC50 [27]: 158 nM
- GIC50 [28]: 30 nM
- GIC50 [29]: 97 nM
- GIC50 [30]: 44 nM
- GIC50 [31]: 63 nM
- GIC50 [32]: 26 nM
- GIC50 [33]: 10 µM
- GIC50 [34]: 65 nM
- GIC50 [35]: 60 nM
SMILES: CC(C)Oc1ccc(C(=O)N[C@H](CNC(=O)CN(C)C)Cc2ccc(-c3cn4cccc([C@H](C)O)c4n3)cc2)cc1Cl
- GIC50 [14]: 24 nM
